Source: article PMC3653798
Results are given in words; binding and its absence hold for the method and conditions named. Binding seen in cells or lysates may run through a third protein. A result given as binding can be weak or reduced; the word gives no strength. For some assays here: Where a sequence is shown, tags or fusion partners need not be part of it.

By UniProt entry, the sequences of proteins in these tests, tags left out. Where a name states a change or a piece, a line headed by the entry shows the natural chain unless it says otherwise. Residues count along the entry.
UniProt P05067: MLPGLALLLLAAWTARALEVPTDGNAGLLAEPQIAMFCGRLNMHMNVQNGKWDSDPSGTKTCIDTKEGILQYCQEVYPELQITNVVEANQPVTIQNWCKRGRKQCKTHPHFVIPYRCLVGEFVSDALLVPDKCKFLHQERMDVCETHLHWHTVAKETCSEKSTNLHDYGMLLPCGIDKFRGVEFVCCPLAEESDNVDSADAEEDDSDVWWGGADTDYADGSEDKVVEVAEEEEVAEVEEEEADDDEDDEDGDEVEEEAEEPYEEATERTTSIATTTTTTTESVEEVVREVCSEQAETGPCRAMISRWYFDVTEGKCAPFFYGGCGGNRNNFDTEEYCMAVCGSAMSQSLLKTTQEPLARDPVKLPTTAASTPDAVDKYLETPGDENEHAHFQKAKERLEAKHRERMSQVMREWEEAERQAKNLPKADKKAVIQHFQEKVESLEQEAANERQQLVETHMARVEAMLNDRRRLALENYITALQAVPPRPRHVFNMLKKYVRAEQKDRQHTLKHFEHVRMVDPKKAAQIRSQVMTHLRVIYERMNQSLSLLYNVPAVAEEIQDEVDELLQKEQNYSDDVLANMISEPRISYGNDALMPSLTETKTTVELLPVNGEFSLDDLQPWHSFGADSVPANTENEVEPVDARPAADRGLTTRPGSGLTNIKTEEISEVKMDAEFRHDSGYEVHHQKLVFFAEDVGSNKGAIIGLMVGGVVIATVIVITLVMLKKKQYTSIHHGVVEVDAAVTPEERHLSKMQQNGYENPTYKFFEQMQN
UniProt Q13467, residues 27-585: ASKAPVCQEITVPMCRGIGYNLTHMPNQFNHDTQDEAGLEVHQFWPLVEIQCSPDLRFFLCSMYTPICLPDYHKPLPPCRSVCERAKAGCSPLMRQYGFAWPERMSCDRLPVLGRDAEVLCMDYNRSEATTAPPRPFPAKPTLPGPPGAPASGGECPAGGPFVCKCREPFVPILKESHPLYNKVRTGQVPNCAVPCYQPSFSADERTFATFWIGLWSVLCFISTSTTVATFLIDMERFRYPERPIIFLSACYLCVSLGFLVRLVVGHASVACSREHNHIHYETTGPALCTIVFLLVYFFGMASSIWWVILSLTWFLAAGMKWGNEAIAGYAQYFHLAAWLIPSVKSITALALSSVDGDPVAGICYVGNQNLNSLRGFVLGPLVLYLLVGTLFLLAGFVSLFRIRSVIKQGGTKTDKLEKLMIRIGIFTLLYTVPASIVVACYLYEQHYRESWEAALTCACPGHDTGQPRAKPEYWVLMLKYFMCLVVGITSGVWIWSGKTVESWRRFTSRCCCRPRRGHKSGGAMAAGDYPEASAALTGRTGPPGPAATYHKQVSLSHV

Tests used:
[1] = target: T1, Drosophila APP Like (APPL), FLAG-tagged (Drosophila melanogaster) (UniProt P14599); test: co-IP; Drosophila tagged proteins co-expressed in HEK293T cells; lysis in 150 mM NaCl, 50 mM Tris/HCl pH 7.5, 10% glycerol, 0.4% Nonidet P-40; IP with anti-FLAG conjugated to Dynabeads M-270, 1 h at 4°C (reverse IP by the partner's tag); Western blot
T1 sequence: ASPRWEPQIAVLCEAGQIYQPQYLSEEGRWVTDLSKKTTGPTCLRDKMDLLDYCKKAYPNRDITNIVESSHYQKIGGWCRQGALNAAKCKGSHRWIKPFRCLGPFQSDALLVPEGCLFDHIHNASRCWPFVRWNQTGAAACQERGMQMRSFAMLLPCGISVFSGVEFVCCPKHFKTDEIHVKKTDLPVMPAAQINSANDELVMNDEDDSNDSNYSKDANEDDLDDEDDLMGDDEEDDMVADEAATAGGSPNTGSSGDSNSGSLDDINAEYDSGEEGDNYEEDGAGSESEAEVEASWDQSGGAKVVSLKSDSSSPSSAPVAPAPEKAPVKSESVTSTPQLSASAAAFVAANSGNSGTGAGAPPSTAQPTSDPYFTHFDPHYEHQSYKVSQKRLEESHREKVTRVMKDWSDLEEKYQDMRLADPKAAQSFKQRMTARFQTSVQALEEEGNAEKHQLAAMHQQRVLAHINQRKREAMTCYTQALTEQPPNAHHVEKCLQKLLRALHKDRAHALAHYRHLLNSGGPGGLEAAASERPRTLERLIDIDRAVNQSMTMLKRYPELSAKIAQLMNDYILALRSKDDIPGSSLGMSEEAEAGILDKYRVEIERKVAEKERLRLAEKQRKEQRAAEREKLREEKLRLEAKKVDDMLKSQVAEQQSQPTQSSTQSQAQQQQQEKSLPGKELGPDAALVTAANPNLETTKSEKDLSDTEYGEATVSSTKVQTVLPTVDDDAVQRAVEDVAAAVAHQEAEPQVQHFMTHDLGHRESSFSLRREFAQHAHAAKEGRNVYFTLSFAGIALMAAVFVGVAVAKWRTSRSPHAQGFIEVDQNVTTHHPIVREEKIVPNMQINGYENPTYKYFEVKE

[2] = target: membrane tethered C-terminus of human APP (APP-C99), FLAG-tagged (human) (UniProt P05067); test: co-IP; Drosophila and human (or human and human) tagged proteins co-expressed in HEK293 cells; lysis in Tris pH 7.4, 150 mM NaCl, 1 mM EDTA, 0.5% NP40, 1 mM DTT; 1 µg immunoprecipitating antibody 1 h at 4°C, Protein G sepharose overnight; Western blot

binding [1]	binding [2]	Substance
binds		Drosophila Van Gogh/Strabismus (Vang), Myc-tagged
	binds	human Frizzled 5 (Fzd5), V5-tagged (from UniProt Q13467 27-585) (receptor)
